Experimental data reported in EP0708091A1, “Indoloylguanidine derivatives” (SUMITOMO PHARMACEUTICALS COMPANY, LIMITED, priority 1994, dated 1996).
Structures can show the parent of a compound that is named as a salt. For at least one compound, name, drawing or mass did not settle the structure.

The chains behind the UniProt entries cited, without tags or fusion partners.
UniProt P26431, whole entry: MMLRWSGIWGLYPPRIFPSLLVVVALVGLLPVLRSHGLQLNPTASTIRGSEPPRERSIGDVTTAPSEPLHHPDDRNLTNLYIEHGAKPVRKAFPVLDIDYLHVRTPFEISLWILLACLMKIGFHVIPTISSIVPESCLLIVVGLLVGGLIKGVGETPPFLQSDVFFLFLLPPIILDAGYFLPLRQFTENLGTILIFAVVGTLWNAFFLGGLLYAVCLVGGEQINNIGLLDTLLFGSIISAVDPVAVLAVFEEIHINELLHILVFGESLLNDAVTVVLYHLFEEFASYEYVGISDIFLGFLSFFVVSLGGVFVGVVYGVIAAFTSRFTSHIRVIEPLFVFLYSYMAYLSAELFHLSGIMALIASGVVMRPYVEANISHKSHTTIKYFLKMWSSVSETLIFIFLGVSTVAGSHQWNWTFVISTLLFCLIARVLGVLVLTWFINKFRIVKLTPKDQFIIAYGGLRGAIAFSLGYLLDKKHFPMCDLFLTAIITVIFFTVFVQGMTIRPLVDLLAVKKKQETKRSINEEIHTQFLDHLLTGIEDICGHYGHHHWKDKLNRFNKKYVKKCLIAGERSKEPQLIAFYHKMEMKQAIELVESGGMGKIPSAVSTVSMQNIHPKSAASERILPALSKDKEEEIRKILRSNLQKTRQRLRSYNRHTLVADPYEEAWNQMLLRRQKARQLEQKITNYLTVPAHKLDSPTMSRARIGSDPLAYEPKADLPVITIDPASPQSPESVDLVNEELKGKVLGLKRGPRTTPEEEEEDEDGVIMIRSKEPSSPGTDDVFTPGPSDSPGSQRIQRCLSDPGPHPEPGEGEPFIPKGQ

Target: T1, Na⁺/H⁺ exchanger (Rattus norvegicus, UniProt P26431)
T1 construct: using the vascular smooth muscle cells isolated from the rat thoracic aorta; endogenous in cells; host or cells: primary vascular smooth muscle cells isolated from rat thoracic aorta
Assay: Inhibition of Na+/H+ exchanger activity in vitro (change in cell viability during acid loading)
Format: cell-based
Conditions: minimum effective concentration (MEC), vascular smooth muscle cells isolated from the rat thoracic aorta
Procedure: Inhibition of Na+/H+ exchanger activity in vitro Method:
The experiment was performed by modifying the method of Mungre et al. described in Exp. Cell Res., 193, 236 (1991). That is, inhibition of the Na⁺/H⁺ exchanger activity was evaluated by the change in cell viability during acid loading, using the vascular smooth muscle cells isolated from the rat thoracic aorta.
The compounds of the present invention shown in Examples were evaluated by the minimum effective concentration (MEC) for the inhibition of the Na⁺/H⁺ exchanger activity.

SMILES | Inhibition of Na^+/H^+ Exchanger MEC
CC(C)n1cc(C(=O)N=C(N)N)c2ccccc21 [Example 17, 1-Isopropyl-3-indoloylguanidine hydrochloride] | 3.0 µM
NC(N)=NC(=O)c1cn(Cc2ccccc2)c2ccccc12 [Example 16, 1-Benzyl-3-indoloylguanidine hydrochloride] | 3.0 µM
